Reference: doi:10.1101/2020.12.09.417667
No constants are given. Whether binding was seen depends on the method and setting. Binding seen in cells or lysates may run through a third protein. Some binding calls cover weakened binding; strength is not graded here. For some of these results: Sequences can lack the tags named with a protein.

Sequences of proteins named here, by UniProt entry; tags and fusion partners are left off.
UniProt P61086: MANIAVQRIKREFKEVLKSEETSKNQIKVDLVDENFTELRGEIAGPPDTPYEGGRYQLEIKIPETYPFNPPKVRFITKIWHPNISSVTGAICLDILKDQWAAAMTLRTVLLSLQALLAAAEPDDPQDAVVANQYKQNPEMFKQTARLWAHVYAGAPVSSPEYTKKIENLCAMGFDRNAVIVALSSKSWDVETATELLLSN

Experiments:
Assay in all cases: co-IP
ERLIN1-FLAG = molecular target: T1, ERLIN1-FLAG (UniProt O75477)
T1 sequence: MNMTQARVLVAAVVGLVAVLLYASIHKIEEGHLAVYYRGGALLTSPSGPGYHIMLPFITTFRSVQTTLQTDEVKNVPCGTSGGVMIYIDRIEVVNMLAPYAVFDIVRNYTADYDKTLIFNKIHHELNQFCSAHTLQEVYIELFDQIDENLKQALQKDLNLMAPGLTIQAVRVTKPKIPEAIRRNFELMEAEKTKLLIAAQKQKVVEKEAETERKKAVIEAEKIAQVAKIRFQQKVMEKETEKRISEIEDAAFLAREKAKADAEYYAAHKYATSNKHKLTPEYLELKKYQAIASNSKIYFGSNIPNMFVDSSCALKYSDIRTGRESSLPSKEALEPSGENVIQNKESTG

PORCN-FLAG = molecular target: T2, PORCN-FLAG (UniProt Q9H237)
T2 sequence: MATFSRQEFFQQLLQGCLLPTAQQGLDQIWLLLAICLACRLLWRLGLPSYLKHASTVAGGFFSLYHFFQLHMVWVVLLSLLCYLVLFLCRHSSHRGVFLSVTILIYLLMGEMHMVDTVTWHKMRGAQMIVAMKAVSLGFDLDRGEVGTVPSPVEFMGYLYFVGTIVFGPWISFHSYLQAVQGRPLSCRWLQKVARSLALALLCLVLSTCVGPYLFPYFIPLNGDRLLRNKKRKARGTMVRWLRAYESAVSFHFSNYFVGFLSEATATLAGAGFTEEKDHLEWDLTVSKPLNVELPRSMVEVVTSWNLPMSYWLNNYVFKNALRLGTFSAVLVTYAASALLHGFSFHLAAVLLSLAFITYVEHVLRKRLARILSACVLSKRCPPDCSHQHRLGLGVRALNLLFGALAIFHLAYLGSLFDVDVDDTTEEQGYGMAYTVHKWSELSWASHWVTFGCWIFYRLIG

ERLIN2-FLAG = molecular target: T3, ERLIN2-FLAG (UniProt O94905)
T3 sequence: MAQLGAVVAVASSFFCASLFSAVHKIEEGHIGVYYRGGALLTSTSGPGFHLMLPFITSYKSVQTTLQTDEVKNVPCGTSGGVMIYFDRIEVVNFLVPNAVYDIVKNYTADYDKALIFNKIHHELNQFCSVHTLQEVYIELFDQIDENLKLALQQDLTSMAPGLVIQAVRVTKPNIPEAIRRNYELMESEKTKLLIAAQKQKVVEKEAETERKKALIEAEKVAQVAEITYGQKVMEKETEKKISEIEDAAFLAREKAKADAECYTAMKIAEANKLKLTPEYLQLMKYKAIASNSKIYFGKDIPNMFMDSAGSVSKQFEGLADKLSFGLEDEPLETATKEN

UBXN4-FLAG = molecular target: T4, UBXN4-FLAG (UniProt Q92575)
T4 sequence: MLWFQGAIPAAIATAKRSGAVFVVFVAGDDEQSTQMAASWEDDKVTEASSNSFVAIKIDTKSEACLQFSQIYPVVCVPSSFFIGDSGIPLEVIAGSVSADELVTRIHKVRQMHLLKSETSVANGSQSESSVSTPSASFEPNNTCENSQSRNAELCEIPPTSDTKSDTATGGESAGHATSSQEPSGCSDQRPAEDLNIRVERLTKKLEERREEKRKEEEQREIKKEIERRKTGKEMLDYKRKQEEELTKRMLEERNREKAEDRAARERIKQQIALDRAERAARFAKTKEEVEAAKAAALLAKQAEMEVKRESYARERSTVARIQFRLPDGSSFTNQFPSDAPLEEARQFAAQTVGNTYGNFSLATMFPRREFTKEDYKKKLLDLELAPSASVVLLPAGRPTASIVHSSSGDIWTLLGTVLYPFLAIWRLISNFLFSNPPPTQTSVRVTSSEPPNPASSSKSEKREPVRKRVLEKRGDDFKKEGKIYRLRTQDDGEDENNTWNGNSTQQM

FAF2-FLAG = molecular target: T5, FAF2-FLAG (UniProt Q96CS3)
T5 sequence: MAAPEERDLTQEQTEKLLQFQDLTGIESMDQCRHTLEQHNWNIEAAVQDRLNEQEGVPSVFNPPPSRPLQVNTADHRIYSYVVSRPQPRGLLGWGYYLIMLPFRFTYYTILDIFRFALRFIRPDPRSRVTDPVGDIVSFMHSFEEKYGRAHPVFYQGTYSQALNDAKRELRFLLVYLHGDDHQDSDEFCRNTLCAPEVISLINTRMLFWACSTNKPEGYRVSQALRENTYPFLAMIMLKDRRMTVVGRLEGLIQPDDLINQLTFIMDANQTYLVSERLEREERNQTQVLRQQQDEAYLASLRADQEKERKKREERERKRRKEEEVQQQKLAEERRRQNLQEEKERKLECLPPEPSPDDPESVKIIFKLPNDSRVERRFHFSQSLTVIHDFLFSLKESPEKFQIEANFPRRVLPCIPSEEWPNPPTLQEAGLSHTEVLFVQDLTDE

FLAG-UBE2K = FLAG-UBE2K (UniProt P61086)

Molecule: endogenous VCP (from UniProt P55072 1-806)
- binding (ERLIN1-FLAG): no binding

B1: endogenous ERLIN2 (protein, UniProt O94905 1-339)
chain: T3 sequence
- binding (PORCN-FLAG): binds

B2: endogenous FAF2 (protein, UniProt Q96CS3 1-445)
chain: T5 sequence
- binding (ERLIN2-FLAG): binds
- binding (PORCN-FLAG): binds
- binding (UBXN4-FLAG): no binding

B3: endogenous EVI/WLS (protein, UniProt Q5T9L3 1-541)
chain: MAGAIIENMSTKKLCIVGGILLVFQIIAFLVGGLIAPGPTTAVSYMSVKCVDARKNHHKTKWFVPWGPNHCDKIRDIEEAIPREIEANDIVFSVHIPLPHMEMSPWFQFMLFILQLDIAFKLNNQIRENAEVSMDVSLAYRDDAFAEWTEMAHERVPRKLKCTFTSPKTPEHEGRYYECDVLPFMEIGSVAHKFYLLNIRLPVNEKKKINVGIGEIKDIRLVGIHQNGGFTKVWFAMKTFLTPSIFIIMVWYWRRITMMSRPPVLLEKVIFALGISMTFINIPVEWFSIGFDWTWMLLFGDIRQGIFYAMLLSFWIIFCGEHMMDQHERNHIAGYWKQVGPIAVGSFCLFIFDMCERGVQLTNPFYSIWTTDIGTELAMAFIIVAGICLCLYFLFLCFMVFQVFRNISGKQSSLPAMSKVRRLHYEGLIFRFKFLMLITLACAAMTVIFFIVSQVTEGHWKWGGVTVQVNSAFFTGIYGMWNLYVFALMFLYAPSHKNYGEDQSNGDLGVHSGEELQLTTTITHVDGPTEIYKLTRKEAQE
- binding (ERLIN1-FLAG): no binding
- binding (FAF2-FLAG): binds
- binding (ERLIN2-FLAG): binds
- binding (UBXN4-FLAG): binds
- binding (FLAG-UBE2K): no binding
